Experimental data reported in PubChem BioAssay AID2685 (National Center for Advancing Translational Sciences (NCATS), 2010).
This is one part of the list. Further columns of the screen follow, without active or inactive calls. The list favours compounds with an active or inconclusive main result. Potencies come from curve fits of mixed quality, noted in brackets.

Test: qHTS Assay for Lipid Storage Modulators in Drosophila S3 Cells;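 on cell number change: cells counted by Cell Tracker Red CMTPX staining in the red channel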
Settings: BODIPY lipid droplet fluorescence, 18-24 h; for cell number change: measured here: cell count max response, cells fed with added oleic acid
In short: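 Drosophila S3 cells loaded with oleic acid (400 uM, as added) and compounds at several concentrations; lipid droplets imaged by 488-nm laser-scanning cytometry, 500–530 nm intensity and object ratio to cell channel. Percent activity normalized to 20 uM Triacsin C.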

[1] = measured here: lipid fluorescence (Fed channel) AC50, cells fed with added oleic acid
[2] = measured here: cell number channel AC50, cells fed with added oleic acid

Oc1ccc(Br)cc1-c1nc2cnccn2c1NC1CCCC1
cell number change: -18.1% | AC50 [1]: 2.31 µM [rising, partial curve, poor fit]

CN(Cc1ccc(C(C)(C)C)cc1)C(=O)Cc1ccc(S(=O)(=O)N2CCOCC2)s1
cell number change: -18.2% | AC50 [1]: 32.6 µM [falling, partial curve, poor fit]

N=c1sccn1CC(=O)Nc1ccc(Cl)cc1[N+](=O)[O-]
cell number change: 23.7% | AC50 [1]: 0.731 µM [rising, full curve, poor fit]

Cc1cc(-c2nnc3sc(-c4ccc(Cl)cc4Cl)nn23)n[nH]1
cell number change: -16.6% | AC50 [2]: 2.59 µM [rising, single point] | AC50 [1]: 3.26 µM [rising, partial curve, poor fit]

CCc1c(C(=O)OC)nnc2cc(C)nn12
cell number change: -48.5% | AC50 [2]: 23.1 µM [falling, single point]

COc1cc2c(cc1NC(=O)Nc1cccc(C)c1)oc1ccccc12
cell number change: 3.05% | AC50 [1]: 3.66 µM [rising, single point]

COc1cccc(NC(=O)CC(c2ccc(OC(C)C)cc2)c2ccccc2OC)c1 (centres undefined)
cell number change: -18.3%

CC(=O)N1CCN(C(=O)C(Cc2ccccc2)NC(=O)c2ccccc2)CC1 (centres undefined)
cell number change: 26%

CCCS(=O)(=O)c1nnnn1-c1cccc(OC)c1
cell number change: -165% | AC50 [2]: 29.1 µM [falling, partial curve] | AC50 [1]: 9.2 µM [falling, partial curve]

Cc1ccc(CNC(=O)CN2CCN(Cc3ccc(C)cc3)C2=O)cc1
cell number change: -15.2% | AC50 [1]: 23.1 µM [falling, single point]

CCOc1ccc(CCNC(=O)Cn2cccc2C(=O)c2ccccc2C)cc1OCC
cell number change: -33.9% | AC50 [2]: 3.26 µM [falling, full curve, poor fit] | AC50 [1]: 7.31 µM [falling, partial curve]

O=C(O)c1ccc(C2(c3ccc(C(=O)O)cc3)OC(=O)c3ccccc32)cc1
cell number change: 18.9% | AC50 [1]: 0.00461 µM [rising, full curve, poor fit]

Cc1ccc(C)c(OCCn2cc(/C=C(\C#N)C(=O)NCC3CCCO3)c3ccccc32)c1 (centres undefined)
cell number change: 58.2% | AC50 [2]: 29.1 µM [rising, single point] | AC50 [1]: 3.66 µM [falling, partial curve]

O=C(CCC1CCCC1)Nc1cccn(Cc2ccccc2Br)c1=O
cell number change: 10.2% | AC50 [1]: 0.82 µM [rising, full curve, poor fit]

C1=CC2CCC1ON2c1ccccc1 (centres undefined)
cell number change: 467% | AC50 [2]: 23.1 µM [rising, single point] | AC50 [1]: 2.59 µM [falling, partial curve, poor fit]

CCOC(=O)N1CCN(S(=O)(=O)N2CCCC(C(=O)NCCc3ccc(C)cc3)C2)CC1 (centres undefined)
cell number change: -11.9% | AC50 [1]: 0.00461 µM [rising, full curve, poor fit]

COc1ccc(C(=O)OCCc2cc3ccccc3c(=O)o2)cc1
cell number change: -1.94% | AC50 [1]: 0.13 µM [rising, single point]

COc1ccc2[nH]c3nc(SCc4nnc(-c5ccc(C)cc5)o4)nnc3c2c1
cell number change: -2.73% | AC50 [2]: 1.03 µM [rising, partial curve, poor fit] | AC50 [1]: 2.59 µM [rising, full curve]

COc1ccc(-n2cnc3ccccc32)cc1
cell number change: 55.9% | AC50 [2]: 10.3 µM [rising, partial curve]

CCCCNC(=O)C1CCCN1C(=O)Nc1cccc(OC)c1 (centres undefined)
cell number change: -7.05% | AC50 [1]: 3.26 µM [rising, full curve]

Cc1c2c(=O)n(-c3nc4ccccc4s3)nc-2cc(O)n1Cc1ccccc1
cell number change: -22.6%

CC1(C)C(=O)Nc2ccccc2N1C(=O)COC(=O)COc1cccc(C(F)(F)F)c1
cell number change: -5.95% | AC50 [1]: 20.6 µM [falling, partial curve]

Cc1ccc(C)c(-n2c(CNC(=O)c3ccco3)nnc2SCC(=O)Nc2nnc(C)s2)c1
cell number change: 2.73%

COc1ccc(NC2=CC(c3cccc(OC)c3)N(c3ccc(OC)cc3)C2=O)cc1 (centres undefined)
cell number change: -1.81%

Cc1cccc(Nc2nc3c(S(=O)(=O)c4ccccc4)nnn3c3ccccc23)c1C
cell number change: 4.23% | AC50 [1]: 0.366 µM [rising, partial curve, poor fit]

CCCCCC(=O)Nc1cc(S(=O)(=O)N2CCOCC2)ccc1N1CCCCC1
cell number change: -8.32% | AC50 [1]: 6.51 µM [rising, single point]

COCCOC(=O)/C(=C\c1cc(C(C)(C)C)c(O)c(C(C)(C)C)c1)C(C)=O
cell number change: -3.92% | AC50 [1]: 0.651 µM [rising, single point]

CCOc1ccc2nc(C)cc(Nc3cccc([N+](=O)[O-])c3)c2c1
cell number change: -17.7%

COc1cc(C)c(C(C)C)cc1S(=O)(=O)N1CCOCC1
cell number change: 5.08%

O=C(Nc1ccc2nc3n(c(=O)c2c1)CCCCC3)c1c(F)ccc([N+](=O)[O-])c1F
cell number change: -62.9% | AC50 [2]: 18.4 µM [falling, partial curve] | AC50 [1]: 1.64 µM [falling, full curve]

COc1ccc(S(=O)(=O)Nc2ccc(O)c3ccccc23)cc1
cell number change: -155% | AC50 [2]: 29.1 µM [falling, single point] | AC50 [1]: 29.1 µM [falling, single point]

O=C(COc1ccc(F)cc1Cl)NC1CCCCCC1
cell number change: -38.3% | AC50 [2]: 13 µM [falling, partial curve]

CC(=O)NCCCc1nc2ccccc2n1Cc1ccccc1C
cell number change: 32.2% | AC50 [2]: 7.31 µM [rising, partial curve, poor fit] | AC50 [1]: 10.3 µM [rising, partial curve]

COCCCNC(=O)Cn1c(=O)n(Cc2ccc(F)cc2)c(=O)c2sccc21
cell number change: 24.9%

O=C(CSc1nnc(COc2ccccc2)o1)N1CCCC1
cell number change: -25.6%

Cc1cc(C)c2c(c1)cc(C)c1nnc(SCC(=O)Nc3cc(C)on3)n12
cell number change: -18.3%

COC(=O)C(Cc1c[nH]c2ccccc12)NC(=O)c1cccs1 (centres undefined)
cell number change: -25.8% | AC50 [1]: 25.9 µM [falling, single point]

COc1c(O)cnn(-c2ccccc2)c1=O
cell number change: -27.1% | AC50 [1]: 0.82 µM [falling, full curve, poor fit]

CN(C)c1ccc(NC(=O)c2cccc([N+](=O)[O-])c2)c2ccccc12
cell number change: 12.4% | AC50 [1]: 29.1 µM [falling, single point]

CC(C)(C)OC(=O)NCCOC(=O)c1[nH]cnc1C(=O)NCc1ccccc1
cell number change: 3.69% | AC50 [1]: 0.0164 µM [falling, full curve, poor fit]

CCN1CCN(C(=O)c2ccc(Cl)c(S(=O)(=O)N3CCOCC3)c2)CC1
cell number change: -12.5% | AC50 [2]: 0.82 µM [falling, full curve, poor fit] | AC50 [1]: 1.03 µM [falling, full curve, poor fit]

Cc1cc(C(=O)NCc2cccs2)no1
cell number change: -22.6% | AC50 [2]: 0.651 µM [falling, full curve, poor fit] | AC50 [1]: 0.731 µM [falling, full curve]

Oc1ccc(-c2n[nH]c(=S)n2-c2ccc3c(c2)OCCO3)cc1
cell number change: -0.176% | AC50 [1]: 4.61 µM [rising, full curve, poor fit]

COc1ccc(CCC(=O)NNC(=O)c2cc(Cl)ccc2OC)cc1
cell number change: 9.58% | AC50 [1]: 2.31 µM [rising, partial curve]

CCOC(=O)c1c(NC(=O)CCN2CCOCC2)sc2c1CC(C)(C)OC2
cell number change: -21.7%

O=c1c(Cl)c(N2CCN(S(=O)(=O)c3ccc(F)cc3)CC2)cnn1-c1cccc(Cl)c1
AC50 [1]: 29.1 µM [falling, single point]

CN(CCO)c1ccc(C(C(=O)c2ccccc2)c2ccc(N(C)CCO)cc2)cc1
cell number change: -38.7% | AC50 [2]: 32.6 µM [falling, single point]

CC(C)(C)NS(=O)(=O)c1ccc(OCC(=O)Nc2ccc3c(c2)OCCO3)cc1
cell number change: -11.5% | AC50 [1]: 0.517 µM [falling, full curve, poor fit]

Cc1cc(Nc2ccc(C)c(F)c2)n2ncnc2n1
cell number change: -5.35% | AC50 [1]: 29.1 µM [rising, single point]

COc1ccc(OCC(=O)Nc2nc3ccccc3[nH]2)cc1
AC50 [2]: 2.06 µM [rising, partial curve] | AC50 [1]: 3.66 µM [rising, partial curve]

O=C(COC(=O)c1ccc(F)c(S(=O)(=O)N2CCOCC2)c1)NC1CC1
cell number change: -1.1% | AC50 [1]: 0.411 µM [rising, full curve, poor fit]

O=C(c1ccccc1)N1CCC(c2nc3c(nnn3Cc3ccco3)c(=O)[nH]2)CC1
cell number change: 7.73% | AC50 [1]: 0.82 µM [rising, full curve, poor fit]

Cc1sc(NC(=O)CCCC(=O)O)c(C#N)c1C
cell number change: -0.287% | AC50 [1]: 32.6 µM [falling, partial curve]

CC(C)(C)C(=O)Nc1nc2c(s1)CN(Cc1ccccc1)CC2
cell number change: -16.6%

O=S(=O)(Nc1cccc(Oc2ccc(Cl)cc2)n1)c1ccc(F)cc1
cell number change: -33.2% | AC50 [2]: 32.6 µM [falling, single point] | AC50 [1]: 32.6 µM [falling, single point]

CC(C)(C)NCC(O)COc1cccc2c1CC(O)C(O)C2 (centres undefined)
cell number change: 0.808% | AC50 [2]: 0.82 µM [falling, partial curve] | AC50 [1]: 0.517 µM [falling, single point]

CN(Cc1ccnc2ccccc12)C(=O)C1CCC(=O)N(Cc2ccccc2F)C1 (centres undefined)
cell number change: 12.9% | AC50 [1]: 14.6 µM [rising, partial curve, poor fit]

Cc1ccc(OCCOC(=O)CN2C(=O)NC3(CCCC3)C2=O)cc1
cell number change: -48.2% | AC50 [2]: 14.6 µM [falling, partial curve] | AC50 [1]: 0.00411 µM [falling, full curve, poor fit]

CC(OC(=O)CCc1nc2ccccc2[nH]c1=O)c1ccccc1 (centres undefined)
cell number change: 16.1% | AC50 [1]: 3.66 µM [rising, full curve]
